Source: the supplement of paper PMC10849652
This is one part of the list.

Chains of the proteins cited; added tags and fusions are not shown. Lines headed by an entry give the natural chain unless they say otherwise; changes in a name come on top.
UniProt P49137, whole entry, looked up: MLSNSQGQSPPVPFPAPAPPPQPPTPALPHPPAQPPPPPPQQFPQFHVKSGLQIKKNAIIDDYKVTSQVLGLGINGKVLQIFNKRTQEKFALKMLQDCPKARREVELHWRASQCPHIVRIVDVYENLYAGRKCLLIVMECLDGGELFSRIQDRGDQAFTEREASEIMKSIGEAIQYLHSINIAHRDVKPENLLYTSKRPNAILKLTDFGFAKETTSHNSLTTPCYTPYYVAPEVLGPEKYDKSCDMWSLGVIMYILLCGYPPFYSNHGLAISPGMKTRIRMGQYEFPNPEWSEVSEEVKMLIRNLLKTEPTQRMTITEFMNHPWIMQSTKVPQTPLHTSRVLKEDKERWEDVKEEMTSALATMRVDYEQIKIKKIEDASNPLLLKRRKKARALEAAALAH
UniProt P07948: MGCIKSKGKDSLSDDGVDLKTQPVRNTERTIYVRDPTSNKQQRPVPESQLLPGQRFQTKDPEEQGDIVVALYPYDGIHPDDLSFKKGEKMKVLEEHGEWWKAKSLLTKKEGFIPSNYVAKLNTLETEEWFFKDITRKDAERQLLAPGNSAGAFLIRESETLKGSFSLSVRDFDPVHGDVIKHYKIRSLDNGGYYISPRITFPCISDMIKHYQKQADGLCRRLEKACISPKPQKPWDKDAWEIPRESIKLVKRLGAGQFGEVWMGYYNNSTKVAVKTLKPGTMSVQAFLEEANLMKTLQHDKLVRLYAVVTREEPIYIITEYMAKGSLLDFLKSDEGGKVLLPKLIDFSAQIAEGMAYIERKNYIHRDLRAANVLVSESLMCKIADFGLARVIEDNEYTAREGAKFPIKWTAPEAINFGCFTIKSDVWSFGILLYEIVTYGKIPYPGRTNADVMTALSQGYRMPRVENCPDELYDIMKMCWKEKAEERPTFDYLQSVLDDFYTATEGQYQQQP
UniProt P49006: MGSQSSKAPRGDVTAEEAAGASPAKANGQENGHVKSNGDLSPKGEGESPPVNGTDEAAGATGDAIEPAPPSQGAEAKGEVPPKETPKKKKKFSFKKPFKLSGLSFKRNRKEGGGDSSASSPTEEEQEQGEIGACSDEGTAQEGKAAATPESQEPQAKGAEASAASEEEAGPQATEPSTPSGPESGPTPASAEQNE
UniProt P62310: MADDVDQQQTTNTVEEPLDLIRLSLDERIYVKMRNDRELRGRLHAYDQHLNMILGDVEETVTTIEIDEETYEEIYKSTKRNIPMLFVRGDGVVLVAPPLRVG
UniProt P49641: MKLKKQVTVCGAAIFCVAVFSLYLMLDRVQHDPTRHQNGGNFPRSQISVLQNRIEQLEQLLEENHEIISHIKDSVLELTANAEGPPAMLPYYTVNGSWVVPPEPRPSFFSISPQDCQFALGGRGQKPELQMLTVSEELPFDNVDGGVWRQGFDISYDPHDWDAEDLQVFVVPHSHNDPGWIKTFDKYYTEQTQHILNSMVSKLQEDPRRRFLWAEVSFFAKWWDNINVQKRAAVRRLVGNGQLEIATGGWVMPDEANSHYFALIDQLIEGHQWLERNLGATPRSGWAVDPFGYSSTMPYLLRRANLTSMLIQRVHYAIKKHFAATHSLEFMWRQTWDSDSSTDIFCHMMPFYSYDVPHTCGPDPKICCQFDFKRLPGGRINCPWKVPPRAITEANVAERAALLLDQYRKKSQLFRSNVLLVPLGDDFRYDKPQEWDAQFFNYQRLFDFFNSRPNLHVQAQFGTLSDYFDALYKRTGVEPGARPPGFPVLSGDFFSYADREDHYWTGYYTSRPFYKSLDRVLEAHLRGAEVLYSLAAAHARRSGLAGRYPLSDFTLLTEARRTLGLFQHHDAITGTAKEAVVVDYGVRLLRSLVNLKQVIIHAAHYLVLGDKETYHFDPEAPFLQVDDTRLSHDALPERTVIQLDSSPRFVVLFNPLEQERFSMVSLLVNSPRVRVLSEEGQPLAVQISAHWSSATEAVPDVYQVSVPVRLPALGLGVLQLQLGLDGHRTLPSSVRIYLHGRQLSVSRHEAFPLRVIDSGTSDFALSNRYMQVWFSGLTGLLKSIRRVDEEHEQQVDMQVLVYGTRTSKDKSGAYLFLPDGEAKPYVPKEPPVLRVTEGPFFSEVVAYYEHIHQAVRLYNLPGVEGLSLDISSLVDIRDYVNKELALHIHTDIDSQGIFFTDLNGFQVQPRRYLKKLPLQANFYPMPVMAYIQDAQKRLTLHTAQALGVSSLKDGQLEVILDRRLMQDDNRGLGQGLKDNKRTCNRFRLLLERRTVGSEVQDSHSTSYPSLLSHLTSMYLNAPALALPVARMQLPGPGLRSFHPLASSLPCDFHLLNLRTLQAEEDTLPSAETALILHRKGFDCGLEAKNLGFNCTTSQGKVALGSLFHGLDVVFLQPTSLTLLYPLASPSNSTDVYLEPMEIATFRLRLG
UniProt Q8ND56: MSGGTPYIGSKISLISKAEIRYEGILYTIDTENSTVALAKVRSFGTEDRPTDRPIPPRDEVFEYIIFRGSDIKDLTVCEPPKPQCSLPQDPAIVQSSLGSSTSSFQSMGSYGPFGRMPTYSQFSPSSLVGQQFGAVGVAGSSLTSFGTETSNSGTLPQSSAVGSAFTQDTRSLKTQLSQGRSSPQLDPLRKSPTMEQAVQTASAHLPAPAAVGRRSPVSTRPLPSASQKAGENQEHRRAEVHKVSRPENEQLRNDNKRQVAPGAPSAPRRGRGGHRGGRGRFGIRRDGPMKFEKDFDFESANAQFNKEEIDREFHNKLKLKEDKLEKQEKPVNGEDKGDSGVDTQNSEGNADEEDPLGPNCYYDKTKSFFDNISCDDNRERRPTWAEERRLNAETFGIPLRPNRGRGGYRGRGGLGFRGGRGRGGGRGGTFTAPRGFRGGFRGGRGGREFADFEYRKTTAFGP
UniProt P43366: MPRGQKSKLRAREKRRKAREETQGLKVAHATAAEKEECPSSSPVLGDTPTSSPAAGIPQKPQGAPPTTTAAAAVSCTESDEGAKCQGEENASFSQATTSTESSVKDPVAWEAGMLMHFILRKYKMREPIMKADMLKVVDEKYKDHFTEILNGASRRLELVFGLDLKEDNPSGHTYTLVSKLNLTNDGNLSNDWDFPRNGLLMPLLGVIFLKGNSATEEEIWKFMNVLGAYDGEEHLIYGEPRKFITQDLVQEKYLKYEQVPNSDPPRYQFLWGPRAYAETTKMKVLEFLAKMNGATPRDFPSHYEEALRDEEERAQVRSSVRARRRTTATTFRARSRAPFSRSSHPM
UniProt O95232: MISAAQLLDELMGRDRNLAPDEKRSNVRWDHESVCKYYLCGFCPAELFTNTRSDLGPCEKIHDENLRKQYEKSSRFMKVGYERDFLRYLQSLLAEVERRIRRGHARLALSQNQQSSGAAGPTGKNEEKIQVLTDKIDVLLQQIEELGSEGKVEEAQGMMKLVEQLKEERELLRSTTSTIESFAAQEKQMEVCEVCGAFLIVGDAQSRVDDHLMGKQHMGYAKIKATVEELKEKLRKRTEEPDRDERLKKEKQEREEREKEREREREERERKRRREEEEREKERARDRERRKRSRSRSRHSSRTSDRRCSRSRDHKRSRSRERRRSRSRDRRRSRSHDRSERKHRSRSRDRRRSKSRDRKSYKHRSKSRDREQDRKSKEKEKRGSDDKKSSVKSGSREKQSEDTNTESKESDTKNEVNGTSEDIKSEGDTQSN
UniProt O43325: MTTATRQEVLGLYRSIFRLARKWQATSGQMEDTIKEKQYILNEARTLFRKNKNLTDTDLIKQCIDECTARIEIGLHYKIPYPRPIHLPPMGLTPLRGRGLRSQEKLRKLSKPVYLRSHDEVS
UniProt Q66K74: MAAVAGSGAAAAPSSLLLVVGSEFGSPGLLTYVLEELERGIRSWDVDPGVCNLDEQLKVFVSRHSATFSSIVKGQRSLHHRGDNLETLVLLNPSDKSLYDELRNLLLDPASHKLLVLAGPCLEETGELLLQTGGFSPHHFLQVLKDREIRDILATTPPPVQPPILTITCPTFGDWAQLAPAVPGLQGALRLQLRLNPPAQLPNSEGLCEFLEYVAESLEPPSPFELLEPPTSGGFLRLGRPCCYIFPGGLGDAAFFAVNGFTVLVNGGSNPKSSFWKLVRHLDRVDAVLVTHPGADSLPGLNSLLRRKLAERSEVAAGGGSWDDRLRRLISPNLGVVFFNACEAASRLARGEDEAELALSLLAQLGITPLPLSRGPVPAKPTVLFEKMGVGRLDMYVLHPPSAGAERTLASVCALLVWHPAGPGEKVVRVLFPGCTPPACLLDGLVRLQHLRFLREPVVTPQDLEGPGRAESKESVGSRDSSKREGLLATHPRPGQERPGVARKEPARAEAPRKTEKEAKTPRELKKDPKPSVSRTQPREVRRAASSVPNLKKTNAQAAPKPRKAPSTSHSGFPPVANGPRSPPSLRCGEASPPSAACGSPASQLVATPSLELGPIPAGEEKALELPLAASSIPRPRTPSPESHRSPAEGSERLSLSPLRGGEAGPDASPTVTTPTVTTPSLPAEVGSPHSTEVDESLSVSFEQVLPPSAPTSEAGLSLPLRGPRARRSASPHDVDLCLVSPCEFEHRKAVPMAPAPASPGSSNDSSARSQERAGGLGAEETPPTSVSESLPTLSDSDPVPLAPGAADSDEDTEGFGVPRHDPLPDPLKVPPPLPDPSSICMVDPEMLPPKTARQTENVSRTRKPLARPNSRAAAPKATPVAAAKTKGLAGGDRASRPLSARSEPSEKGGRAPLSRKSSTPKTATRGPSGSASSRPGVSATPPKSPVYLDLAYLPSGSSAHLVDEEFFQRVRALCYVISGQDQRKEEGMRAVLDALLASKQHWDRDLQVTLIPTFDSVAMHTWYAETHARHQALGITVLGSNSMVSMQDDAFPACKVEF
UniProt Q9HD34: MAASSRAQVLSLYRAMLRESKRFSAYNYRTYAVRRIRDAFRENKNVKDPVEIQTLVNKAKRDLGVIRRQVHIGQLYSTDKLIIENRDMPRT
UniProt P56192: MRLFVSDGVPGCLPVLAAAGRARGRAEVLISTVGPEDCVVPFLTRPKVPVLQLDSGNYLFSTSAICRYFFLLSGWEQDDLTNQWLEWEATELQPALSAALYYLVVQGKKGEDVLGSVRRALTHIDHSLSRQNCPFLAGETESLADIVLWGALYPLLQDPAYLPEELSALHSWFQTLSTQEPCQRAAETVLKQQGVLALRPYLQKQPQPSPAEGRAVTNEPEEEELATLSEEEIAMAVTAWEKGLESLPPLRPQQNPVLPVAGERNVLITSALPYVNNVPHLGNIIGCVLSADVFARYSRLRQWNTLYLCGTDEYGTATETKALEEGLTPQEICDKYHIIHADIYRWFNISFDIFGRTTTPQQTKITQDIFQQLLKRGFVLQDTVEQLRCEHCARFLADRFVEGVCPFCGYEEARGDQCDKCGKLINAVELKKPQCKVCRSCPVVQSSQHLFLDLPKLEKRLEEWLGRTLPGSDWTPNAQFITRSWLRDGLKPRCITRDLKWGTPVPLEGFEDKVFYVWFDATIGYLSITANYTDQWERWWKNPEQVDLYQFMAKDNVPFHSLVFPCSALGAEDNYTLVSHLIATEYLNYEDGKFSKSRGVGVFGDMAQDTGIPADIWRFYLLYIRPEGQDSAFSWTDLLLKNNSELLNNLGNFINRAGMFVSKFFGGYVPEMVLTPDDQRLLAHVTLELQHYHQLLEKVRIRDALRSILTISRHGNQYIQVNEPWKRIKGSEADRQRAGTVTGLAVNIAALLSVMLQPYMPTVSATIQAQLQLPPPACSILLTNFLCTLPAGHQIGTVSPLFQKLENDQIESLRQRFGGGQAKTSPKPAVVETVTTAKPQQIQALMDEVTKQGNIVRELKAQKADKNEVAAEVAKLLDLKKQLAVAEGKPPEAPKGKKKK
UniProt Q12851: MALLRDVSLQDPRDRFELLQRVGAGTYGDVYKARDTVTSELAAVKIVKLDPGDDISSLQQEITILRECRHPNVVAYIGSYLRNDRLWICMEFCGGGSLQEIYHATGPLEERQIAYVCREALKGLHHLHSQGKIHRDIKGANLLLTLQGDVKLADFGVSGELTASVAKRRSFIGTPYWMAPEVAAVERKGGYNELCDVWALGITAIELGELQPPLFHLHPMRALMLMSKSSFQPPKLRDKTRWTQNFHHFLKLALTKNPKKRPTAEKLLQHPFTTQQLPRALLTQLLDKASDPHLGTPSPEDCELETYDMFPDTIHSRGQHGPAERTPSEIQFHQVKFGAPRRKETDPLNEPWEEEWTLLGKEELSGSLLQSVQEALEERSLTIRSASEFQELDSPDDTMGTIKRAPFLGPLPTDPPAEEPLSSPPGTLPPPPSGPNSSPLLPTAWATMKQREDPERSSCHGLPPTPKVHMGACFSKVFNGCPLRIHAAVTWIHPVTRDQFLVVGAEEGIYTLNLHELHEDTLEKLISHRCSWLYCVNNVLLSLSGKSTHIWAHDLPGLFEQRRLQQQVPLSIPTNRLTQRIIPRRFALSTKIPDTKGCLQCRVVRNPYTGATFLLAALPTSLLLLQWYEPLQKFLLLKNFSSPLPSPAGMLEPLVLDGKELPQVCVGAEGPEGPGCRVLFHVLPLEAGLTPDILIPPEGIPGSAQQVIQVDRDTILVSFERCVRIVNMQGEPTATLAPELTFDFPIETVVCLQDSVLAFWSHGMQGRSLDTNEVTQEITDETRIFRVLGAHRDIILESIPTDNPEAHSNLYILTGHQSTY

Legend:
Experiment in all cases: log2 fold change, soluble protein after heating vs DMSO (PISA); higher = thermal stabilisation; K562 cells, 10 uM, 30 min; active = over 0.2 and 3.5 SD of the protein, either way, in both replicates (recomputed)
[1] = compound: C1=CC=C(C=C1)[C@H](COC2=CC3=C(C=C2)NC(=O)N3)NC(=O)C4=CC=CN(C4=O)CC5=CC(=C(C=C5)F)F
How it was run: (§1)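 Soluble protein was defined as the supernatant after 21,000xg for 90 min. It came from K562 cells at 2×10^6 cells/mL given 10 μM compound for 30 min, heated in aliquots for 3 min across 48°C-58°C, pooled, and extracted in PBS with 0.5% NP-40 at 4°C, and was quantified by TMTpro 16plex LC-MS/MS with equalised channel sums. Thermal stability against control samples, from duplicates, is reported as log2 fold change.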

[2] = compound: CC1=C(SC2=C1C(=N[C@H](C3=NN=C(N32)C)CC(=O)N)C4=CC=C(C=C4)Cl)C
How it was run: as §1

[3] = compound: CC1=C2C(=CC=C1)N=C(N(C2=O)C3=CC=CC=C3C)CN4C=NC5=C(N=CN=C54)N
How it was run: as §1

[4] = compound: Cc1sc2c(c1C)C(c1ccc(Cl)cc1)=N[C@@H](CC(=O)OC(C)(C)C)c1nnc(C)n1-2
How it was run: as §1

[5] = compound: c1ccc([C@@H]2C[C@H]2NC2CCNCC2)cc1
How it was run: as §1

Measured: log2 fold change

MAPKAPK2 (UniProt P49137)
inactive: [1] -0.047 | [2] 0.064 | [3] 0.012 | [4] 0.013 | [5] -0.056

MACF1 (UniProt Q9UPN3)
inactive: [1] -0.026 | [2] -0.021 | [3] 0.032 | [4] 0.037 | [5] -0.012

LYN (UniProt P07948)
inactive: [1] 0.035 | [2] 0.038 | [3] 0.013 | [4] 0.028 | [5] -0.043

LRRC8E (UniProt Q6NSJ5)
inactive: [1] 0.05 | [2] -0.051 | [3] -0.065 | [4] 0.044 | [5] -0.065

MAGI1 (UniProt Q96QZ7)
inactive: [1] 0.025 | [2] -0.026 | [3] -0.005 | [4] 0.054 | [5] -0.016

MAPK14 (UniProt Q16539)
inactive: [1] -0.01 | [2] 0.153 | [3] 0.061 | [4] -0.03 | [5] -0.089

MAP2K2 (UniProt P36507)
inactive: [1] 0.034 | [2] 0.065 | [3] 0.073 | [4] -0.027 | [5] -0.067

MARCKSL1 (UniProt P49006)
inactive: [1] -0.052 | [2] 0.029 | [3] -0.032 | [4] -0.008 | [5] 0.011

LUC7L2 (UniProt Q9Y383)
inactive: [1] 0.023 | [2] -0.044 | [3] 0.036 | [4] 0.006 | [5] 0.014

LSM3 (UniProt P62310)
inactive: [1] 0.033 | [2] 0.02 | [3] -0.074 | [4] -0.03 | [5] 0.016

MAPK3 (UniProt P27361)
inactive: [1] -0.014 | [2] 0.039 | [3] -0.02 | [4] -0.059 | [5] -0.029

MAN2A2 (UniProt P49641)
inactive: [1] 0.025 | [2] -0.037 | [3] 0.071 | [4] 0.007 | [5] -0.057

LSM14A isoform 2 (UniProt Q8ND56)
inactive: [1] 0.007 | [2] 0.03 | [3] 0.096 | [4] 0.009 | [5] -0.031

MAN2B1 (UniProt O00754)
inactive: [1] 0.06 | [2] 0.046 | [3] 0.056 | [4] 0.027 | [5] 0.05

MAGEB1 (UniProt P43366)
inactive: [1] 0.121 | [2] -0.248 | [3] -0.257 | [4] 0.296 | [5] 0.029

LSM1 (UniProt O15116)
inactive: [1] -0.025 | [2] 0.08 | [3] 0.05 | [4] -0.083 | [5] 0.022

MARCHF5 (UniProt Q9NX47)
inactive: [1] -0.034 | [2] 0.027 | [3] -0.032 | [4] -0.042 | [5] 0.045

LTBR (UniProt P36941)
inactive: [1] 0.023 | [2] -0.105 | [3] 0.072 | [4] 0.009 | [5] 0.091

LTF (UniProt P02788)
inactive: [1] -0.048 | [2] -0.088 | [3] -0.002 | [4] 0.098 | [5] 0.13

LTV1 (UniProt Q96GA3)
inactive: [1] -0.02 | [2] -0.137 | [3] -0.033 | [4] 0.17 | [5] 0

MAP1B (UniProt P46821)
inactive: [1] 0.029 | [2] -0.046 | [3] -0.024 | [4] -0.005 | [5] 0.014

MAGEC1 (UniProt O60732)
inactive: [1] 0.088 | [2] -0.11 | [3] -0.029 | [4] 0.031 | [5] -0.087

Taken from the results shown (2 entries):
LTF (UniProt P02788)
inactive: [1] -0.048 | [2] -0.088 | [3] -0.002 | [4] 0.098 | [5] 0.13

LTV1 (UniProt Q96GA3)
inactive: [1] -0.02 | [2] -0.137 | [3] -0.033 | [4] 0.17 | [5] 0

More entries.

MANBA (UniProt O00462)
inactive: [1] 0.063 | [2] 0.028 | [3] 0.04 | [4] 0.03 | [5] 0.034

LZTFL1 (UniProt Q9NQ48)
inactive: [1] -0.012 | [2] 0.036 | [3] 0.025 | [4] -0.021 | [5] -0.062

LUC7L3 (UniProt O95232)
inactive: [1] 0.002 | [2] -0.021 | [3] 0.023 | [4] 0.021 | [5] 0.028

MAP7D3 (UniProt Q8IWC1)
inactive: [1] 0.01 | [2] -0.264 | [5] 0.097

LYRM1 (UniProt O43325)
inactive: [1] -0.05 | [2] 0.037 | [3] 0.08 | [4] 0.005 | [5] 0.006

MAP2K4 isoform 2 (UniProt P45985)
inactive: [1] -0.049 | [2] 0.053 | [3] 0.066 | [4] 0.004 | [5] 0.037

MAP1A isoform 2 (UniProt P78559)
inactive: [1] 0.013 | [2] -0.095 | [3] -0.012 | [4] 0.022 | [5] -0.015

MAP1S (UniProt Q66K74)
inactive: [1] -0.028 | [2] 0.054 | [3] 0.012 | [4] 0.064 | [5] -0.028

MAP3K20 (UniProt Q9NYL2)
inactive: [1] 0.02 | [2] -0.037 | [3] 0.017 | [4] 0.005 | [5] 0.022

MARCHF6 (UniProt O60337)
inactive: [1] 0.031 | [2] 0.034 | [3] 0.024 | [4] -0.05 | [5] -0.102

LYRM4 (UniProt Q9HD34)
inactive: [1] 0 | [2] 0.096 | [3] 0.057 | [4] 0.004 | [5] 0.027

M6PR (UniProt P20645)
inactive: [1] 0.012 | [2] 0.005 | [3] -0.006 | [4] -0.055 | [5] 0.001

MARS (UniProt P56192)
inactive: [1] -0.005 | [2] -0.017 | [3] -0.026 | [4] 0.084 | [5] -0.006

MADD isoform 2 (UniProt Q8WXG6)
inactive: [1] -0.148 | [2] -0.143 | [4] 0.118 | [5] -0.189

MACF1 (UniProt H3BQK9)
inactive: [1] -0.026 | [2] 0.013 | [3] 0.309 | [4] 0.029 | [5] -0.04

MANEA (UniProt Q5SRI9)
inactive: [1] 0 | [2] -0.024 | [3] -0.059 | [4] -0.02 | [5] 0.011

MAP4K2 (UniProt Q12851)
inactive: [1] -0.08 | [2] 0.063 | [4] -0.057 | [5] 0

LYPLA1 (UniProt O75608)
inactive: [1] 0.008 | [2] 0.11 | [3] 0.055 | [4] -0.098 | [5] 0.002

MAP11 (UniProt Q8WVR3)
inactive: [1] -0.044 | [2] 0.001 | [3] 0.021 | [5] 0.124
